Measurements taken from patent US10336792B2 (priority 2014, dated 2019).
Positions of bridges follow the written chain, without caps; N, C: chain ends. Non-standard residues stand in square brackets, D forms with d. Residues, ends and D or L forms follow the SMILES beside them. Groups on a side chain read outwards from the residue. Chains are numbered I, II in the order given. Dab = NCC[C@H](N)C(=O)O

What was measured:
Type in all cases: cell-based
[1] = tested on: Bacillus subtilis (strain BR151); conditions: MHC on hRBC / MIC B. subtilis
Experimental: (§1) Antimicrobial activity was assayed against Bacillus subtilis (strain BR151), Escherichia coli (strain DH5α) and Pseudomonas aeruginosa (strain PA01). Microdilution broth method was used to determine the minimal inhibitory concentration (MIC). A colony of bacteria was grown in LB-medium overnight at 37° C. The concentration was quantified by measuring absorbance at 600 nm and diluted to OD600=0.1 (1×10^8 CFU/mL). The samples were prepared as stock solutions of 1 mg mL^−1 in H2O and diluted serially by ⅔ in nutrient LB in a 96-well microtiterplate (Cornstar, polypropylene, untreated). The sample solutions (50 μL) were mixed with the diluted bacterial suspension with an OD600 nm of 0.001 (50 μL). […] The plates were incubated at 37° C. until satisfactory growth (18-24 h). For each test, two columns of the plate were kept for sterility control (SC, broth only) and growth control (GC, broth with bacterial inoculums, no antibiotics). 10 μL of a solution of MTT (0.1% in H2O) was added to each well. The minimal inhibitory concentration (MIC) was defined as the lowest concentration of the antimicrobial substance (peptide dendrimer) that inhibited visible growth of the tested bacteria (yellow) with the unaided eye. For microbiological study the linear peptide LysTyrLysLysAlaLeuLysLysLeuAlaLysLeuLeu (SEQ ID No. 1) was used as reference.
(§2) The AMPD library was tested for their antimicrobial activity against B. subtilis BR151, a Gram-positive bacterium and E. coli DH5α, another Gram-negative bacterium, to cover a broader spectrum of different bacteria. […] Therefore no explicit SAR can be established, but clearly the hydrophobic amino acids Ala and Tyr seem to have a significant influence in reducing activity.

[2] = tested on: Escherichia coli (strain DH5α); conditions: MHC on hRBC / MIC E. coli
Experimental: as §1, §2

[3] = tested on: Pseudomonas aeruginosa (strain PA01); conditions: MHC on hRBC / MIC PAO1
Experimental: as §1
All peptides were tested for their activity against P. aeruginosa PAO1 in a broth dilution assay (Wiegand, I. et al., 2008, Nat. Protoc., 3, 163-75; Clinical and Laboratory Standards Institute document M7-A7 7th Edition) to determine the MIC (minimal inhibitory concentration) values. The stock solutions of the peptide dendrimers were diluted serially by ⅔ in nutrient LB in 96-well microtiter plates. Bacteria were grown in nutrient LB overnight at 37° C. After dilution the bacteria were added to the peptides and incubated overnight (18-24 h) at 37° C. […] The position of the amino acids between the branching units seems to be optimal if the hydrophobic amino acid is the first counting from C-terminus and the charged one is on the second position. Introducing Ala as additional hydrophobic amino acid reduces activity (MSt-120). […] Also assembling charged or hydrophobic sections between the branching units leads to loss of activity whereas altering L-amino acids to D-amino acids maintains activity leading to the hypothesis that the mechanism of action should not be receptor mediated.

| Compound | TI (MHC/MIC), B. subtilis BR151 [1] | TI (MHC/MIC), E. coli DH5α [2] | TI (therapeutic index = MHC/MIC), P. aeruginosa PAO1 [3] |
| --- | --- | --- | --- |
| CC(C)C[C@@H](NC(=O)[C@@H](CCCCN)NC(=O)[C@@H](CCCCNC(=O)[C@@H](CC(C)C)NC(=O)[C@@H](CCCCN)NC(=O)[C@@H](CCCCNC(=O)[C@@H](CC(C)C)NC(=O)[C@@H](CCCCN)NC(=O)[C@@H](CCCCNC(=O)[C@@H](CC(C)C)NC(=O)[C@H](N)CCCCN)NC(=O)[C@@H](CC(C)C)NC(=O)[C@H](N)CCCCN)NC(=O)[C@@H](CC(C)C)NC(=O)[C@@H](CCCCN)NC(=O)[C@@H](CCCCNC(=O)[C@@H](CC(C)C)NC(=O)[C@H](N)CCCCN)NC(=O)[C@@H](CC(C)C)NC(=O)[C@H](N)CCCCN)NC(=O)[C@@H](CC(C)C)NC(=O)[C@@H](CCCCN)NC(=O)[C@@H](CCCCNC(=O)[C@@H](CC(C)C)NC(=O)[C@@H](CCCCN)NC(=O)[C@@H](CCCCNC(=O)[C@@H](CC(C)C)NC(=O)[C@H](N)CCCCN)NC(=O)[C@@H](CC(C)C)NC(=O)[C@H](N)CCCCN)NC(=O)[C@@H](CC(C)C)NC(=O)[C@@H](CCCCN)NC(=O)[C@@H](CCCCNC(=O)[C@@H](CC(C)C)NC(=O)[C@H](N)CCCCN)NC(=O)[C@@H](CC(C)C)NC(=O)[C@H](N)CCCCN)C(N)=O [MSt-181, (kl)8(kkl)4(kkl)2(kkl)] (I: H-[dK][dL][dK]([dL-dK])[dK][dL][dK][dK][dL][dK][dK][dL]-NH2 / II: H-[dK][dL][dK]([dL-dK])[dK][dL][dK][dK][dL] / III: H-[dK][dL][dK]([dL-dK])[dK][dL] / IV: H-[dK][dL][dK]([dL-dK])[dK][dL]; amide I:6-IV:C, I:9-II:C, II:6-III:C) | 340 | 679 | 170 |
| CC(C)C[C@H](NC(=O)[C@H](CC(C)C)NC(=O)[C@H](CCCCN)NC(=O)[C@H](C)NC(=O)[C@H](CC(C)C)NC(=O)[C@H](CCCCN)NC(=O)[C@H](CCCCN)NC(=O)[C@H](CC(C)C)NC(=O)[C@H](C)NC(=O)[C@H](CCCCN)NC(=O)[C@H](CCCCN)NC(=O)[C@H](Cc1ccc(O)cc1)NC(=O)[C@@H](N)CCCCN)C(N)=O [RHe-9, (KYKKALKKLAKLL), reference compound] (H-KYKKALKKLAKLL-NH2) | 105 | >419 | – |
| NCC[C@H](NC(=O)[C@H](CCCCNC(=O)[C@H](Cc1c[nH]c2ccccc12)NC(=O)[C@H](CCN)NC(=O)[C@H](CCCCNC(=O)[C@H](Cc1c[nH]c2ccccc12)NC(=O)[C@@H](N)CCN)NC(=O)[C@H](Cc1c[nH]c2ccccc12)NC(=O)[C@@H](N)CCN)NC(=O)[C@H](Cc1c[nH]c2ccccc12)NC(=O)[C@H](CCN)NC(=O)[C@H](CCCCNC(=O)[C@H](Cc1c[nH]c2ccccc12)NC(=O)[C@@H](N)CCN)NC(=O)[C@H](Cc1c[nH]c2ccccc12)NC(=O)[C@@H](N)CCN)C(=O)N[C@@H](Cc1c[nH]c2ccccc12)C(N)=O [MSt-176, (DabW)4(KDabW)2(KDabW)] (I: H-[Dab]WK([Trp-Dab])[Dab]WK[Dab]W-NH2 / II: H-[Dab]WK([Trp-Dab])[Dab]W; amide I:6-II:C; N-terminus assumed) | 46 | 15 | 46 |
| CC(C)C[C@H](NC(=O)[C@H](CCCCN)NC(=O)[C@H](CCCCNC(=O)[C@H](CC(C)C)NC(=O)[C@H](CCCCN)NC(=O)[C@H](CCCCNC(=O)[C@H](CC(C)C)NC(=O)[C@H](CCCCN)NC(=O)[C@H](CCCCNC(=O)[C@H](Cc1ccc(O)cc1)NC(=O)[C@@H](N)CCCCN)NC(=O)[C@H](Cc1ccc(O)cc1)NC(=O)[C@@H](N)CCCCN)NC(=O)[C@H](CC(C)C)NC(=O)[C@H](CCCCN)NC(=O)[C@H](CCCCNC(=O)[C@H](Cc1ccc(O)cc1)NC(=O)[C@@H](N)CCCCN)NC(=O)[C@H](Cc1ccc(O)cc1)NC(=O)[C@@H](N)CCCCN)NC(=O)[C@H](CC(C)C)NC(=O)[C@H](CCCCN)NC(=O)[C@H](CCCCNC(=O)[C@H](CC(C)C)NC(=O)[C@H](CCCCN)NC(=O)[C@H](CCCCNC(=O)[C@H](Cc1ccc(O)cc1)NC(=O)[C@@H](N)CCCCN)NC(=O)[C@H](Cc1ccc(O)cc1)NC(=O)[C@@H](N)CCCCN)NC(=O)[C@H](CC(C)C)NC(=O)[C@H](CCCCN)NC(=O)[C@H](CCCCNC(=O)[C@H](Cc1ccc(O)cc1)NC(=O)[C@@H](N)CCCCN)NC(=O)[C@H](Cc1ccc(O)cc1)NC(=O)[C@@H](N)CCCCN)C(N)=O [MSt-114, (KY)8(KKL)4(KKL)2(KKL)] (I: H-KYK([Tyr-Lys])KLKKLKKL-NH2 / II: H-KYK([Tyr-Lys])KLKKL / III: H-KYK([Tyr-Lys])KL / IV: H-KYK([Tyr-Lys])KL; amide I:6-IV:C, I:9-II:C, II:6-III:C) | 48 | 18 | 314 |
| CC(C)C[C@H](NC(=O)[C@H](CCCCN)NC(=O)[C@H](CCCCNC(=O)[C@H](CC(C)C)NC(=O)[C@H](CCCCN)NC(=O)[C@H](CCCCNC(=O)[C@H](CC(C)C)NC(=O)[C@H](CCCCN)NC(=O)[C@@H](N)CCCCN)NC(=O)[C@H](CC(C)C)NC(=O)[C@H](CCCCN)NC(=O)[C@@H](N)CCCCN)NC(=O)[C@H](CC(C)C)NC(=O)[C@H](CCCCN)NC(=O)[C@H](CCCCNC(=O)[C@H](CC(C)C)NC(=O)[C@H](CCCCN)NC(=O)[C@@H](N)CCCCN)NC(=O)[C@H](CC(C)C)NC(=O)[C@H](CCCCN)NC(=O)[C@@H](N)CCCCN)C(N)=O [MSt-119, (KKL)4(KKL)2(KKL)] (I: H-KKLK([Leu-Lys-Lys])KLKKL-NH2 / II: H-KKLK([Leu-Lys-Lys])KL; amide I:7-II:C) | – | – | 226 |
| CC(C)C[C@H](NC(=O)[C@H](CCCNC(=N)N)NC(=O)[C@H](CCCCNC(=O)[C@H](CC(C)C)NC(=O)[C@H](CCCNC(=N)N)NC(=O)[C@H](CCCCNC(=O)[C@H](CC(C)C)NC(=O)[C@H](CCCNC(=N)N)NC(=O)[C@H](CCCCNC(=O)[C@H](CC(C)C)NC(=O)[C@@H](N)CCCNC(=N)N)NC(=O)[C@H](CC(C)C)NC(=O)[C@@H](N)CCCNC(=N)N)NC(=O)[C@H](CC(C)C)NC(=O)[C@H](CCCNC(=N)N)NC(=O)[C@H](CCCCNC(=O)[C@H](CC(C)C)NC(=O)[C@@H](N)CCCNC(=N)N)NC(=O)[C@H](CC(C)C)NC(=O)[C@@H](N)CCCNC(=N)N)NC(=O)[C@H](CC(C)C)NC(=O)[C@H](CCCNC(=N)N)NC(=O)[C@H](CCCCNC(=O)[C@H](CC(C)C)NC(=O)[C@H](CCCNC(=N)N)NC(=O)[C@H](CCCCNC(=O)[C@H](CC(C)C)NC(=O)[C@@H](N)CCCNC(=N)N)NC(=O)[C@H](CC(C)C)NC(=O)[C@@H](N)CCCNC(=N)N)NC(=O)[C@H](CC(C)C)NC(=O)[C@H](CCCNC(=N)N)NC(=O)[C@H](CCCCNC(=O)[C@H](CC(C)C)NC(=O)[C@@H](N)CCCNC(=N)N)NC(=O)[C@H](CC(C)C)NC(=O)[C@@H](N)CCCNC(=N)N)C(N)=O [MSt-242, (RL)8(KRL)4(KRL)2(KRL)] (I: H-RLK([Leu-Arg])RLKRLKRL-NH2 / II: H-RLK([Leu-Arg])RLKRL / III: H-RLK([Leu-Arg])RL / IV: H-RLK([Leu-Arg])RL; amide I:6-IV:C, I:9-II:C, II:6-III:C) | 8 | 29 | 11 |
| CC(C)C[C@H](NC(=O)[C@H](CC(C)C)NC(=O)[C@H](CCCCNC(=O)[C@H](CC(C)C)NC(=O)[C@H](CC(C)C)NC(=O)[C@H](CCCCNC(=O)[C@H](CCCCN)NC(=O)[C@H](CCCCN)NC(=O)[C@H](CCCCNC(=O)[C@H](CCCCN)NC(=O)[C@@H](N)CCCCN)NC(=O)[C@H](CCCCN)NC(=O)[C@@H](N)CCCCN)NC(=O)[C@H](CCCCN)NC(=O)[C@H](CCCCN)NC(=O)[C@H](CCCCNC(=O)[C@H](CCCCN)NC(=O)[C@@H](N)CCCCN)NC(=O)[C@H](CCCCN)NC(=O)[C@@H](N)CCCCN)NC(=O)[C@H](CC(C)C)NC(=O)[C@H](CC(C)C)NC(=O)[C@H](CCCCNC(=O)[C@H](CCCCN)NC(=O)[C@H](CCCCN)NC(=O)[C@H](CCCCNC(=O)[C@H](CCCCN)NC(=O)[C@@H](N)CCCCN)NC(=O)[C@H](CCCCN)NC(=O)[C@@H](N)CCCCN)NC(=O)[C@H](CCCCN)NC(=O)[C@H](CCCCN)NC(=O)[C@H](CCCCNC(=O)[C@H](CCCCN)NC(=O)[C@@H](N)CCCCN)NC(=O)[C@H](CCCCN)NC(=O)[C@@H](N)CCCCN)C(N)=O [MSt-140, (KK)8(KKK)4(KLL)2(KLL)] (I: H-KKK([Lys-Lys])KKKLLKLL-NH2 / II: H-KKK([Lys-Lys])KKKLL / III: H-KKK([Lys-Lys])KK / IV: H-KKK([Lys-Lys])KK; amide I:6-IV:C, I:9-II:C, II:6-III:C) | 10 | <1 | – |
